Experimental data from PubChem BioAssay AID2685 (National Center for Advancing Translational Sciences (NCATS), 2010).
The list shows a part of the results. The main result of the screen is listed elsewhere. These columns were measured beside it and carry no call. Compounds called inactive in the main read-out are mostly missing here. Words in brackets tell the shape of the fitted curve; partial curves, single points and poor fits give uncertain potencies.

Experiment: qHTS Assay for Lipid Storage Modulators in Drosophila S3 Cells;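 for cell number change: cells counted by Cell Tracker Red CMTPX staining in the red channel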
Settings: BODIPY lipid droplet fluorescence, 18-24 h; for cell number change: measured here: cell count max response, cells fed with added oleic acid
How it was run: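 Drosophila S3 cells got compounds at several concentrations plus oleic acid (400 uM solution). Laser-scanning cytometry with 488 nm excitation read lipid droplets at 500-530 nm and cells at 575-640 nm. Percent activity was relative to 20 uM Triacsin C.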

[1] = measured here: lipid fluorescence (Fed channel) AC50, cells fed with added oleic acid
[2] = measured here: cell number channel AC50, cells fed with added oleic acid

Compound | cell number change [%] | AC50 [1] | AC50 [2]
CCN(C(=O)COC(=O)CCCN1C(=O)c2cccc3cccc(c23)C1=O)C1CCS(=O)(=O)C1 (centres undefined) | 17.5 | – | –
C=C(C)Cn1c(SCCN2CCOCC2)nc2c1c(=O)[nH]c(=O)n2C | -3.22 | 13 µM [rising, partial curve, poor fit] | –
O=S(=O)(Cc1ccccc1)N1CCNCC1 | 7.89 | – | 0.58 µM [rising, single point]
O=C(NNC(=O)c1ccc(O)cc1O)c1ccc(Cl)cc1 | -86.1 | – | 29.1 µM [falling, partial curve, poor fit]
CCOc1ccc(CN2CCN(S(=O)(=O)c3ccc(NC(C)=O)cc3)CC2)cc1 | – | 29.1 µM [rising, single point] | –
Cc1c(NC(=O)c2ccccc2N(C)S(=O)(=O)c2ccccc2)c(=O)n(-c2ccccc2)n1C | 33.3 | 5.8 µM [falling, single point] | 0.291 µM [rising, partial curve, poor fit]
CCn1c(C)cc(C)c(C#N)c1=O | – | 0.0058 µM [falling, full curve, poor fit] | 0.92 µM [falling, full curve, poor fit]
COc1ccc(S(=O)(=O)Nc2ccc3c(c2)n(C)c(=O)n3C)cc1C | -14.3 | – | –
CCNC(=O)CN(c1ccc(CC)cc1)S(C)(=O)=O | 12.3 | 4.11 µM [falling, full curve] | –
CN(Cc1ccccc1)C(=O)COC(=O)c1cncc(Br)c1 | -47.2 | 20.6 µM [falling, partial curve] | 29.1 µM [falling, single point]
O=C(COc1cccc(NC(=O)c2ccco2)c1)c1ccc(F)cc1 | – | 6.51 µM [rising, single point] | 2.06 µM [rising, partial curve]
COc1cc2[nH]c(=O)n(CCC(=O)N3CCC(N4CCCCC4)CC3)c(=O)c2cc1OC | 34.3 | 29.1 µM [rising, single point] | 29.1 µM [rising, single point]
CC1=NNC(=O)/C1=C\c1cn(-c2ccccc2)nc1-c1ccccc1 | -56.4 | 0.231 µM [falling, full curve] | 0.259 µM [falling, full curve]
OCCn1ccc(-c2ccccc2OCc2ccc(F)cc2)n1 | 20.9 | 8.2 µM [rising, partial curve] | –
Cc1nonc1CN(C)C(=O)c1cc(COc2ccc(F)cc2Cl)on1 | -14.7 | 0.0651 µM [rising, full curve, poor fit] | –
COCc1cc(C)[nH]c(=O)c1C(=O)NC12CC3CC(CC(C3)C1)C2 | -8.23 | – | –
COc1ccc(-c2noc(CN(C(=O)c3ccc4c(c3)OCO4)C(C)C)n2)cc1 | 2.1 | 0.326 µM [falling, single point] | –
CCCOc1ccccc1OCC(=O)Nc1ccc(S(=O)(=O)N2CCCC2)cc1 | -54 | 7.31 µM [falling, partial curve] | 18.4 µM [falling, partial curve]
c1ccc2c(COn3nnc4ccccc43)cccc2c1 | 166 | 4.61 µM [rising, partial curve] | 11.6 µM [rising, partial curve]
O=C(COC(=O)c1cnccn1)NCCc1ccc(Cl)cc1Cl | -17.8 | – | 0.00461 µM [rising, full curve, poor fit]
O=C(c1cccs1)c1coc2ccc(O)c(CN(CCO)CCO)c12 | – | – | 0.651 µM [falling, single point]

Compound | cell number change [%] | AC50 [1] | AC50 [2]
CCCCNC(=S)NC(=O)c1ccccc1Br | 1.8 | 6.51 µM [rising, partial curve] | 0.731 µM [rising, full curve]
Cc1cccc(-c2nnc(SCC(=O)N3CCOCC3)o2)c1 | -10.5 | – | –
Cn1c(=O)c2c(ncn2Cc2nnc(N)s2)n(C)c1=O | -45.9 | 6.51 µM [falling, partial curve, poor fit] | –
CCCOc1cccc(C(=O)NCCCNC(=O)c2ccccn2)c1 | -5.52 | 29.1 µM [rising, single point] | –
Nc1nc(SCC(=O)NCc2ccc3c(c2)OCO3)n[nH]1 | – | 2.51 µM [falling, partial curve] | 0.891 µM [falling, full curve]
O=C(N/N=C/c1cccnc1)c1cccc(F)c1 | 9.61 | 29.1 µM [rising, single point] | –
O=C(Nc1ccnc(-c2ccncc2)n1)C1CC1 | 20 | 0.0082 µM [falling, full curve, poor fit] | –
Nc1nc(NCc2ccco2)nn1-c1ccccc1 | -13.5 | 2.59 µM [falling, full curve] | –
CCCSc1cc(N2CCN(C)CC2)nc(-c2ccc(OC)cc2)n1 | -36.9 | 0.164 µM [falling, full curve, poor fit] | –
COc1cc(-c2cc(C(=O)Nc3cccc(C(C)=O)c3)c3ccccc3n2)cc(OC)c1OC | 335 | 0.116 µM [falling, single point] | 20.6 µM [rising, partial curve]
CN(C)CC(C)(C)CNS(=O)(=O)c1cccc(Cl)c1Cl | -7.53 | – | –
CCOc1ccccc1N(C(=O)c1ccccc1Cl)C1=NC(C)(C)CS1 | -1.37 | – | –
CC(=O)c1ccc(N2CCN(C(=O)[C@H](C)NC(=O)c3ccccc3Cl)CC2)cc1 | 21.7 | 23.1 µM [rising, single point] | –
CC(=O)Nc1ccc(NC(=S)NC(=O)/C=C/c2ccco2)cc1 | – | 2.59 µM [falling, full curve] | –
O=C(COC(=O)C1CCN(S(=O)(=O)c2cccs2)CC1)Nc1ccc(F)c(F)c1F | – | 14.6 µM [rising, partial curve] | –
Cc1sc(NC(=O)c2cccs2)nc1-c1ccccc1 | -16.9 | – | –
O=C(N/N=C/c1cccs1)C1COc2ccccc2O1 (centres undefined) | 41 | – | –
NC(=O)C1(N2CCCCC2)CCN(C(=O)CSc2nc(C(F)(F)F)cc(=O)[nH]2)CC1 | -39.2 | 0.184 µM [falling, full curve] | –
COc1ccc(/C=C/c2nc(N)nc(-c3ccccc3O)n2)cc1OC | -70 | 0.82 µM [rising, full curve] | 5.8 µM [falling, partial curve]
COc1cc(CNCc2ccc(Br)cc2)cc(OC)c1 | -24.3 | 29.1 µM [falling, single point] | –
CC1=NN(C(=O)Cc2ccc([N+](=O)[O-])cc2)C(O)(c2ccccc2)C1 (centres undefined) | 9.32 | 11.6 µM [rising, partial curve] | –

Part of the list above in order of formula weight, smallest number first.
Compound | cell number change [%] | AC50 [1] | AC50 [2]
O=C(Nc1ccnc(-c2ccncc2)n1)C1CC1 | 20 | 0.0082 µM [falling, full curve, poor fit] | –
O=C(N/N=C/c1cccnc1)c1cccc(F)c1 | 9.61 | 29.1 µM [rising, single point] | –
Cn1c(=O)c2c(ncn2Cc2nnc(N)s2)n(C)c1=O | -45.9 | 6.51 µM [falling, partial curve, poor fit] | –
OCCn1ccc(-c2ccccc2OCc2ccc(F)cc2)n1 | 20.9 | 8.2 µM [rising, partial curve] | –
COCc1cc(C)[nH]c(=O)c1C(=O)NC12CC3CC(CC(C3)C1)C2 | -8.23 | – | –
O=C(COc1cccc(NC(=O)c2ccco2)c1)c1ccc(F)cc1 | – | 6.51 µM [rising, single point] | 2.06 µM [rising, partial curve]
COc1ccc(S(=O)(=O)Nc2ccc3c(c2)n(C)c(=O)n3C)cc1C | -14.3 | – | –
CN(Cc1ccccc1)C(=O)COC(=O)c1cncc(Br)c1 | -47.2 | 20.6 µM [falling, partial curve] | 29.1 µM [falling, single point]
Cc1nonc1CN(C)C(=O)c1cc(COc2ccc(F)cc2Cl)on1 | -14.7 | 0.0651 µM [rising, full curve, poor fit] | –
CCCOc1ccccc1OCC(=O)Nc1ccc(S(=O)(=O)N2CCCC2)cc1 | -54 | 7.31 µM [falling, partial curve] | 18.4 µM [falling, partial curve]
COc1cc2[nH]c(=O)n(CCC(=O)N3CCC(N4CCCCC4)CC3)c(=O)c2cc1OC | 34.3 | 29.1 µM [rising, single point] | 29.1 µM [rising, single point]
NC(=O)C1(N2CCCCC2)CCN(C(=O)CSc2nc(C(F)(F)F)cc(=O)[nH]2)CC1 | -39.2 | 0.184 µM [falling, full curve] | –

(more compounds)

Compound | cell number change [%] | AC50 [1] | AC50 [2]
CN1CCN(c2ncnc3c2cnn3-c2ccc(Cl)cc2)CC1 | -1.01 | – | –
NCCCC[C@H](NC(=O)C1CCNCC1)c1nnc([C@@H](N)Cc2ccc(O)cc2)o1 | -10.9 | – | 0.651 µM [falling, partial curve, poor fit]
Cc1sc2nc(SCC(=O)N(CCO)CCO)n(C3CCCCC3)c(=O)c2c1C | 2.44 | 29.1 µM [falling, single point] | –
Cc1ccc(NC(=O)CSc2nc(=O)n(Cc3ccncc3)c3c2CCC3)c(C)c1 | 8.72 | 29.1 µM [rising, single point] | –
COC(=O)c1cc(C#N)c(SCc2ccccc2)nc1C | 42.8 | 7.31 µM [rising, partial curve] | 2.06 µM [rising, full curve]
CN1C(=O)Cc2cc(S(=O)(=O)NCc3c(F)cccc3Cl)ccc21 | 4.35 | – | –
CCCCc1cc(=O)oc2cc(C)cc(OCC(=O)Nc3cccnc3)c12 | 14.9 | – | –
CCCC(=O)N1CCN(c2nnc(-c3ccccc3)c3ccccc23)CC1 | 10.9 | 0.116 µM [falling, full curve, poor fit] | –
CC1(C)N=C(SCC(=O)Nc2ccc(Cl)cc2)C(c2ccccc2)=N1 | 42.1 | 14.6 µM [rising, partial curve] | 6.51 µM [rising, full curve]
COCCNc1nnc(SCC(=O)NNC(=O)c2ccccc2)s1 | 24.8 | 0.651 µM [falling, partial curve] | –
COc1cc(C)c(C(C)C)cc1S(=O)(=O)N1CCN(C)CC1 | -1.12 | 5.8 µM [falling, partial curve] | –
Cc1ccccc1NC(=O)Cn1c(=O)n(C)c2ccccc21 | 25.7 | 0.164 µM [rising, full curve] | –
O=C(O)/C=C/C(=O)NC1CCCCC1 | -2.98 | – | –
Cc1ccc(-c2nnn(CC(=O)N(c3cnc4ccccc4c3)C(C(=O)NC3CCCC3)c3ccncc3)n2)o1 (centres undefined) | 0.406 | 4.11 µM [rising, single point] | 2.59 µM [rising, single point]
CS(=O)(=O)Nc1ccc(C(=O)NCC2CCCO2)cc1 (centres undefined) | 5.06 | 0.92 µM [falling, full curve, poor fit] | –
CCOC(=O)C1=C(CC)Nc2ccccc2N/C1=N\S(=O)(=O)c1ccccc1F | -7.1 | 2.06 µM [rising, partial curve, poor fit] | –
Cn1c(SCC(=O)c2ccc3c(c2)NC(=O)CO3)nc2ccccc21 | -4.46 | 0.116 µM [rising, partial curve, poor fit] | –
Cc1noc(C)c1COc1ccc(C(=O)N2CCN(S(=O)(=O)c3ccccc3)CC2)cc1 | 8.23 | 6.51 µM [rising, single point] | –
O=C(O)c1c(F)c(F)c(F)c(F)c1-c1ccc(Cl)cc1 | -44.1 | 23.1 µM [falling, partial curve] | 29.1 µM [falling, single point]
